Record: PubChem BioAssay AID1259405 (NCATS, 2018)
Aim: 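Mouse-designed siRNAs used to find CHO productivity engineering targets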 (primary screen). Cell system: Chinese hamster CHO-K1 ovary cells with stable secreted eGFP expression. Reagents: single siRNA against mouse genes, 0.8 pmol siRNA per well (2 µl of 400 nM stock). Time to read-out: 3 days. Measured: 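Percent of the per-plate non-targeting control median for intracellular GFP per well by laser scanning cytometry and for cell viability by ATP luminescence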. Direction: GFP, % of control: higher = more GFP per well, higher productivity; viability (ATP), % of control: higher = more viable cells (more ATP). Active means: 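a knock-down is called active if GFP reaches 120% or more of non-targeting control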.
The deposit covers about 50,000 reagents; below is a random part of them. In the full data, about 4,000 (8%) got an active call. 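Mouse siRNA library applied to hamster cells; one well for each siRNA.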 The numbers tell different reagents against one gene apart.

target | reagent no. | GFP, % of control | viability (ATP), % of control | outcome
Rasip1 (Ras interacting protein 1) | 1 | 81.7 | 84.6 | inactive
Rasip1 (Ras interacting protein 1) | 2 | 166 | 74.6 | active
Rasip1 (Ras interacting protein 1) | 3 | 49.5 | 66 | inactive
Id3 (inhibitor of DNA binding 3) | 1 | 67 | 36.3 | inactive
Id3 (inhibitor of DNA binding 3) | 2 | 79.5 | 72 | inactive
Id3 (inhibitor of DNA binding 3) | 3 | 115 | 102 | inactive
Otud7b (OTU domain containing 7B) | 1 | 83.3 | 78.2 | inactive
Otud7b (OTU domain containing 7B) | 2 | 82.3 | 60.5 | inactive
Otud7b (OTU domain containing 7B) | 3 | 34.1 | 53.8 | inactive
Tmc5 (transmembrane channel-like gene family 5) | 1 | 134 | 93.2 | active
Tmc5 (transmembrane channel-like gene family 5) | 2 | 61.5 | 62.9 | inactive
Tmc5 (transmembrane channel-like gene family 5) | 3 | 45.4 | 73.2 | inactive
Cenpu (centromere protein U) | 1 | 118 | 72.7 | inactive
Cenpu (centromere protein U) | 2 | 50.9 | 91.4 | inactive
Cenpu (centromere protein U) | 3 | 67.7 | 69.8 | inactive
Atp6v1b1 (ATPase, H+ transporting, lysosomal V1 subunit B1) | 1 | 80.8 | 87.3 | inactive
Atp6v1b1 (ATPase, H+ transporting, lysosomal V1 subunit B1) | 2 | 48.2 | 49.6 | inactive
Atp6v1b1 (ATPase, H+ transporting, lysosomal V1 subunit B1) | 3 | 41 | 49.6 | inactive
Vmn2r10 (vomeronasal 2, receptor 10) | 1 | 58.1 | 56.8 | inactive
Vmn2r10 (vomeronasal 2, receptor 10) | 2 | 68.1 | 69.4 | inactive
Vmn2r10 (vomeronasal 2, receptor 10) | 3 | 41.5 | 66.3 | inactive
Or6aa1 (olfactory receptor family 6 subfamily AA member 1) | 1 | 62.9 | 25 | inactive
Or6aa1 (olfactory receptor family 6 subfamily AA member 1) | 2 | 52.3 | 55.3 | inactive
Or6aa1 (olfactory receptor family 6 subfamily AA member 1) | 3 | 34.4 | 89 | inactive
Lifr (LIF receptor alpha) | 1 | 120 | 96 | active
Lifr (LIF receptor alpha) | 2 | 112 | 86.1 | inactive
Lifr (LIF receptor alpha) | 3 | 64.1 | 54.6 | inactive
Gltp (glycolipid transfer protein) | 1 | 45.7 | 66.3 | inactive
Gltp (glycolipid transfer protein) | 2 | 63 | 48.2 | inactive
Gltp (glycolipid transfer protein) | 3 | 51.4 | 51.5 | inactive
Eya2 (EYA transcriptional coactivator and phosphatase 2) | 1 | 88.2 | 69.8 | inactive
Eya2 (EYA transcriptional coactivator and phosphatase 2) | 2 | 91.3 | 103 | inactive
Eya2 (EYA transcriptional coactivator and phosphatase 2) | 3 | 108 | 65.9 | inactive
Cd4 (CD4 antigen) | 1 | 55.5 | 66.8 | inactive
Cd4 (CD4 antigen) | 2 | 81.4 | 67.1 | inactive
Cd4 (CD4 antigen) | 3 | 97.1 | 75.6 | inactive
Khsrp (KH-type splicing regulatory protein) | 1 | 122 | 104 | active
Khsrp (KH-type splicing regulatory protein) | 2 | 78.9 | 95.8 | inactive
Khsrp (KH-type splicing regulatory protein) | 3 | 91.7 | 54.8 | inactive
Il1f10 (interleukin 1 family, member 10) | 1 | 44.8 | 42 | inactive
Il1f10 (interleukin 1 family, member 10) | 2 | 55.3 | 87 | inactive
Il1f10 (interleukin 1 family, member 10) | 3 | 84.1 | 68.9 | inactive
Hmbox1 (homeobox containing 1) | 1 | 83.7 | 74.4 | inactive
Hmbox1 (homeobox containing 1) | 2 | 109 | 54.8 | inactive
Hmbox1 (homeobox containing 1) | 3 | 97 | 62.5 | inactive
Cldn11 (claudin 11) | 1 | 55.3 | 60.2 | inactive
Cldn11 (claudin 11) | 2 | 93.1 | 116 | inactive
Cldn11 (claudin 11) | 3 | 98.9 | 123 | inactive
Cyb5b (cytochrome b5 type B) | 1 | 113 | 95 | inactive
Cyb5b (cytochrome b5 type B) | 2 | 76.7 | 58.7 | inactive
Cyb5b (cytochrome b5 type B) | 3 | 84.1 | 52.4 | inactive
Ywhaz | 1 | 90.5 | 63.2 | inactive
Ywhaz | 2 | 131 | 60.2 | active
Ywhaz | 3 | 89.9 | 101 | inactive
Galnt1 (polypeptide N-acetylgalactosaminyltransferase 1) | 1 | 121 | 81 | active
Galnt1 (polypeptide N-acetylgalactosaminyltransferase 1) | 2 | 83.7 | 138 | inactive
Galnt1 (polypeptide N-acetylgalactosaminyltransferase 1) | 3 | 108 | 93.9 | inactive
Bnc2 (basonuclin zinc finger protein 2) | 1 | 55.5 | 59.7 | inactive
Bnc2 (basonuclin zinc finger protein 2) | 2 | 57.1 | 60.2 | inactive
Bnc2 (basonuclin zinc finger protein 2) | 3 | 92.7 | 138 | inactive
Ipo11 (importin 11) | 1 | 68.7 | 62.7 | inactive
Ipo11 (importin 11) | 2 | 58.9 | 84.6 | inactive
Ipo11 (importin 11) | 3 | 65.9 | 63.9 | inactive
Trpm7 | 1 | 73.5 | 74.5 | inactive
Trpm7 | 2 | 84.3 | 56.2 | inactive
Trpm7 | 3 | 75.7 | 59.7 | inactive
Rexo2 (RNA exonuclease 2) | 1 | 71.5 | 73.6 | inactive
Rexo2 (RNA exonuclease 2) | 2 | 67.3 | 59.2 | inactive
Rexo2 (RNA exonuclease 2) | 3 | 71.4 | 53.1 | inactive
Ncln (nicalin) | 1 | 131 | 83.4 | active
Ncln (nicalin) | 2 | 140 | 24.3 | active
Ncln (nicalin) | 3 | 71.7 | 78.2 | inactive
Cse1l (chromosome segregation 1 like) | 1 | 99.2 | 63.7 | inactive
Cse1l (chromosome segregation 1 like) | 2 | 82 | 81.6 | inactive
Cse1l (chromosome segregation 1 like) | 3 | 62.4 | 39.7 | inactive
Tmem158 (transmembrane protein 158) | 1 | 119 | 71.2 | inactive
Tmem158 (transmembrane protein 158) | 2 | 40.1 | 44.7 | inactive
Tmem158 (transmembrane protein 158) | 3 | 77.1 | 102 | inactive
Nop10 (NOP10 ribonucleoprotein) | 1 | 74.9 | 67.3 | inactive
Nop10 (NOP10 ribonucleoprotein) | 2 | 97.2 | 83.6 | inactive
Nop10 (NOP10 ribonucleoprotein) | 3 | 90.2 | 110 | inactive
Obox3 (oocyte specific homeobox 3) | 1 | 115 | 85.7 | inactive
Obox3 (oocyte specific homeobox 3) | 2 | 55.7 | 58.1 | inactive
Obox3 (oocyte specific homeobox 3) | 3 | 79.9 | 37.3 | inactive

Reformatted: results already given.
target,reagent no.,"GFP, % of control","viability (ATP), % of control",outcome
"Il1f10 (interleukin 1 family, member 10)",2,55.3,87,inactive
"Il1f10 (interleukin 1 family, member 10)",3,84.1,68.9,inactive
Hmbox1 (homeobox containing 1),1,83.7,74.4,inactive
Hmbox1 (homeobox containing 1),2,109,54.8,inactive
Hmbox1 (homeobox containing 1),3,97,62.5,inactive
Cldn11 (claudin 11),1,55.3,60.2,inactive
Cldn11 (claudin 11),2,93.1,116,inactive
Cldn11 (claudin 11),3,98.9,123,inactive
Cyb5b (cytochrome b5 type B),1,113,95,inactive
